In US20130174289A1, “Na+/Mg2+ Exchanger” (FBN - Leibnitz-Institut fur Nutztierbiologie, priority 2010, published 2013):
At least one structure is not confirmed: it was looked up by name or label, or the drawing left a doubt.

Amino acid sequences for entries named in this document (tags omitted). A change or cut given only in a name is not applied to a line headed by its entry.
UniProt Q8IVJ1: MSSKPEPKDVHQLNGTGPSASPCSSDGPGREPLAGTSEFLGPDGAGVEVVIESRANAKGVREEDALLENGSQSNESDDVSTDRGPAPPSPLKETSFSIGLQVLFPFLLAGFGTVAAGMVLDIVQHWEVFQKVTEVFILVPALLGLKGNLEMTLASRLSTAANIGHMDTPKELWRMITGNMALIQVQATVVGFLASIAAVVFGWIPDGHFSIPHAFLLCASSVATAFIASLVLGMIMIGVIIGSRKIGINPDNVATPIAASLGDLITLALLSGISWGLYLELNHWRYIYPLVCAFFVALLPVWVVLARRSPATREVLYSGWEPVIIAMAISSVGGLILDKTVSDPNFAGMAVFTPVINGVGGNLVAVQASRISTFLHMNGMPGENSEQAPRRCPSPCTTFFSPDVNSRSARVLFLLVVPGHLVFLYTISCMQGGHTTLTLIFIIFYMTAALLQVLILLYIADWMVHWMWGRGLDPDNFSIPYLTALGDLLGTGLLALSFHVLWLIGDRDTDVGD

Molecular target: SLC41A1-related Na+/Mg2+ exchanger (Homo sapiens, UniProt Q8IVJ1)
Assay: Modulators of SLC41A1-related Na+/Mg2+ exchanger activity (Table 3);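 further: listed substances are classed by whether they raise or lower SLC41A1-related Na+/Mg2+ exchanger activity, acting directly on the protein or through cellular signalling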
Format: cell-based
Conditions: at the dosage given, where given

CSCC[C@H](NC(=O)[C@H](CC(C)C)NC(=O)[C@H](Cc1cnc[nH]1)NC(=O)CNC(=O)[C@@H](NC(=O)[C@H](C)NC(=O)[C@H](Cc1c[nH]c2ccccc12)NC(=O)[C@H](CCC(N)=O)NC(=O)[C@H](CC(N)=O)NC(=O)CNC(=O)[C@H](CC(C)C)NC(=O)[C@H](CCCN=C(N)N)NC(=O)[C@H](CCC(N)=O)NC(=O)[C@@H]1CCC(=O)N1)C(C)C)C(N)=O [Bombesin]
Effect on Na+/Mg2+ exchanger: inhibition
